The list shows a part of the results.
molecular target: OsWRKY34 (Oryza sativa, UniProt Q0JBA9 1-250); experiment: protein-binding microarray (RPBM); PBS, 2% BSA, 51.3 ng/ul salmon testes DNA, 50 uM zinc acetate, 200 nM TF, 25 C, 1 h; high values mean tight binding; conditions: protein: recombinant; tags: N-terminal polyhistidine and DsRed monomer fusion (pET32a); label: CyDye5-dUTP incorporated in the synthesized complementary strand; 3' TTTTT single-stranded linker to array surface; dsDNA, one strand shown
In short: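 In PBS with 2% BSA, salmon testes DNA and 50 µM zinc acetate, 200 nM protein was incubated on a custom Agilent array at 25 °C for 1 h and then washed off. The array had been made double-stranded by primer extension with Cy5-dUTP and blocked with 2% BSA. The proteins were transcription factors fused N-terminally to polyhistidine and DsRed, expressed in E. coli BL21-CodonPlus and purified on Ni–NTA. The binding signal is per-feature fluorescence intensity (arbitrary units) from an Axon 4000B scanner.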

Protein sequences, listed by entry. Tags and fused reporters are not part of them.
UniProt Q0JBA9, entry or part of it: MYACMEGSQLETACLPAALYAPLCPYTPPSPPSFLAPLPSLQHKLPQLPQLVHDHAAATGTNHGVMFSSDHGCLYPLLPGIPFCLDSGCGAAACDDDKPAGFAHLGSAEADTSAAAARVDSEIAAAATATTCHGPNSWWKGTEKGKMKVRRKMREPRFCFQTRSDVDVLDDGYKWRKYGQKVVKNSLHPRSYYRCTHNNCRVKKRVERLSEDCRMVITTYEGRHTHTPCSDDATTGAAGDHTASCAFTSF

Row | Sequence | binding signal
1 | GCATCTGCATGCCATCTCATCTCATCTCACATTCCTCACACGGAGTCACCTAGTGCAG | 8830 fluorescence intensity (a.u.)
2 | GTGCTTTGATACAGGGATTGTGCAGGGTGGGGAGGATAGACGGAGTCACCTAGTGCAG | 16100 fluorescence intensity (a.u.)
3 | CCACATCATTTTTCATTCTAGTTGATAGCTTATTTAATGTCGGAGTCACCTAGTGCAG | 9230 fluorescence intensity (a.u.)
4 | ATATGCTAAAAAGTCAACGGTGTCAAACATTTATTAACGGCGGAGTCACCTAGTGCAG | 13400 fluorescence intensity (a.u.)
5 | ATAACCTCTAGCTAGCTCTGCCTGATCCAGTACTGTTAAACGGAGTCACCTAGTGCAG | 8120 fluorescence intensity (a.u.)
6 | TTCCCTCTAAGTTATTGCCGTGTCGTTCTTATCTTAACCACGGAGTCACCTAGTGCAG | 11100 fluorescence intensity (a.u.)
7 | CCTGCATGCGTGGCTGCGCTCACTGTCGTTATTTGCTTTACGGAGTCACCTAGTGCAG | 10100 fluorescence intensity (a.u.)
8 | GGGAATAACTCGTCGATGTCAGCCGCATGCACGCCAAGAGCGGAGTCACCTAGTGCAG | 10400 fluorescence intensity (a.u.)
9 | TTTACAGCGACTATATATCTCTCCCTCATCTCCATCTAGACGGAGTCACCTAGTGCAG | 8190 fluorescence intensity (a.u.)
10 | TCATAATTATAATTGCCATCTCTACTTGGTATCAGGTACACGGAGTCACCTAGTGCAG | 8570 fluorescence intensity (a.u.)
11 | GGCATGTGGTTGTTCGTGCTCCTTGCATGCCACACTTAATCGGAGTCACCTAGTGCAG | 8090 fluorescence intensity (a.u.)
12 | ACTAAACTTCCGCCGGCGTGTGGGCACATCGCACCGGCGCCGGAGTCACCTAGTGCAG | 8360 fluorescence intensity (a.u.)
13 | CATATGTATGAGGGTATCTTTGTTTTGGCTTTGGTCCCTTCGGAGTCACCTAGTGCAG | 10200 fluorescence intensity (a.u.)
14 | TCATGCCTTATTTGTATATCCCCTCTCTCTCCCTTTGTCTCGGAGTCACCTAGTGCAG | 8560 fluorescence intensity (a.u.)
15 | GGGCGGTGGCGGACTGGCGGACTGACGACGACGGCGCCGGCGGAGTCACCTAGTGCAG | 8320 fluorescence intensity (a.u.)
16 | TCTTTGTACTAAGGAGCTTGGTTATATTACATTCTGTGTACGGAGTCACCTAGTGCAG | 8280 fluorescence intensity (a.u.)
17 | AAGGTGAGGTTGATGTTCTTTGTGTTGGTTACATGATGAGCGGAGTCACCTAGTGCAG | 10500 fluorescence intensity (a.u.)
18 | ACCTCGACCCTCTGCCCCTCAACTCGGTGGTGACCACGCGCGGAGTCACCTAGTGCAG | 8310 fluorescence intensity (a.u.)
19 | CCCTCTCTCTCCCTTTGTCTCCTTCCCTTTCTTTATTCTGCGGAGTCACCTAGTGCAG | 8580 fluorescence intensity (a.u.)
20 | GAGGATGCGGGTGGGGACGCGAAAGAGGGTGTACTTGGCGCGGAGTCACCTAGTGCAG | 10000 fluorescence intensity (a.u.)
21 | TATTTTAGTGCAAGGGGCGGGCGGGCGCGGTAGAAGTCAACGGAGTCACCTAGTGCAG | 18200 fluorescence intensity (a.u.)

Row | Sequence | binding signal
22 | GGTTTGTTTTGCCACTTTTGTGCTTATCTCGTTTTCCAAGCGGAGTCACCTAGTGCAG | 10400 fluorescence intensity (a.u.)
23 | CTGGCTACCAAATTCACATTTTCTGTGGTACATGTACAAGCGGAGTCACCTAGTGCAG | 8300 fluorescence intensity (a.u.)
24 | TAACAACTTTATCAGTCCTCATTCGGTTTTTTCTCTTTTACGGAGTCACCTAGTGCAG | 9590 fluorescence intensity (a.u.)
25 | CATCCGCACCCGTACATTATCCGCACCCGCTCCAAATCTGCGGAGTCACCTAGTGCAG | 12600 fluorescence intensity (a.u.)
26 | AGCACACACATGGGGATCACATTATTACATAGACTTTGACCGGAGTCACCTAGTGCAG | 8250 fluorescence intensity (a.u.)
27 | GTCGAGGTGGTTCTTTTTTAACTTAGGGGTGATGGATATGCGGAGTCACCTAGTGCAG | 10000 fluorescence intensity (a.u.)
28 | AAATTTGTGAAAAGTTGCATAAACGTTGACTCCAGTTTGCCGGAGTCACCTAGTGCAG | 8770 fluorescence intensity (a.u.)
29 | CATATTATGCTGTCATATCCTCGAGTATTCGTGTACCAATCGGAGTCACCTAGTGCAG | 9910 fluorescence intensity (a.u.)
30 | TCTCGCTGCGGCGCCGGCCCCACGCGCATCCCGCATCGCTCGGAGTCACCTAGTGCAG | 8850 fluorescence intensity (a.u.)
31 | TGCCTTATTTCTATGTGGGTAAGCTCATTTTGTTGTTACGCGGAGTCACCTAGTGCAG | 8930 fluorescence intensity (a.u.)
32 | CATTCCACATCACATGCTTCACCACCATAGCCGGAAGCAACGGAGTCACCTAGTGCAG | 8260 fluorescence intensity (a.u.)
33 | CCTTCAAAGTTCAAATTTGTTTTCCTTTTTTTGTCGGTGTCGGAGTCACCTAGTGCAG | 8990 fluorescence intensity (a.u.)
34 | CCTCGTTCTTCTTCTTCTCTCTCTGGTTTTACATTTTTACCGGAGTCACCTAGTGCAG | 10300 fluorescence intensity (a.u.)
35 | GCAAGCAGTTCAGTGGATCACATTACACGTCGCCCTGATTCGGAGTCACCTAGTGCAG | 8060 fluorescence intensity (a.u.)
36 | TGACGGATCCTCCACCACCACCACCTCGATCGTCAAATCCCGGAGTCACCTAGTGCAG | 10400 fluorescence intensity (a.u.)
37 | TATACCTGCATTTTTACTACTAGCTCCTGTTACTTATCACCGGAGTCACCTAGTGCAG | 9160 fluorescence intensity (a.u.)
38 | GATTGCTAACTTGCTTCCTCCGTCCGCGGCCACCACTTTCCGGAGTCACCTAGTGCAG | 10700 fluorescence intensity (a.u.)
39 | CGCCGACAGCCCGAACCCGCGGCGACGTTTCCCTCGACCCCGGAGTCACCTAGTGCAG | 8940 fluorescence intensity (a.u.)
40 | CACCCAAGAAAAAAACTAATTGCTATTGTGGGTGGGGTCCCGGAGTCACCTAGTGCAG | 8030 fluorescence intensity (a.u.)
41 | TACCAAAGTTCTTTTTTTATGGCCATTTGTACCATTGTTACGGAGTCACCTAGTGCAG | 9410 fluorescence intensity (a.u.)
42 | CCTGCTCCGCCGCCGCCGCCGCCGCCGGCCTCCTCCGACCCGGAGTCACCTAGTGCAG | 8360 fluorescence intensity (a.u.)

Part of the list above, as tab-separated lines:
Row	Sequence	binding signal
23	CTGGCTACCAAATTCACATTTTCTGTGGTACATGTACAAGCGGAGTCACCTAGTGCAG	8300 fluorescence intensity (a.u.)
36	TGACGGATCCTCCACCACCACCACCTCGATCGTCAAATCCCGGAGTCACCTAGTGCAG	10400 fluorescence intensity (a.u.)

Source: article PMC7819943, “Rice protein-binding microarrays: a tool to detect cis-acting elements near promoter regions in rice”
